The text below walks through data of publication PMC7926356.

Protein sequences, listed by entry. Tags and fused reporters are not part of them.
UniProt P19634: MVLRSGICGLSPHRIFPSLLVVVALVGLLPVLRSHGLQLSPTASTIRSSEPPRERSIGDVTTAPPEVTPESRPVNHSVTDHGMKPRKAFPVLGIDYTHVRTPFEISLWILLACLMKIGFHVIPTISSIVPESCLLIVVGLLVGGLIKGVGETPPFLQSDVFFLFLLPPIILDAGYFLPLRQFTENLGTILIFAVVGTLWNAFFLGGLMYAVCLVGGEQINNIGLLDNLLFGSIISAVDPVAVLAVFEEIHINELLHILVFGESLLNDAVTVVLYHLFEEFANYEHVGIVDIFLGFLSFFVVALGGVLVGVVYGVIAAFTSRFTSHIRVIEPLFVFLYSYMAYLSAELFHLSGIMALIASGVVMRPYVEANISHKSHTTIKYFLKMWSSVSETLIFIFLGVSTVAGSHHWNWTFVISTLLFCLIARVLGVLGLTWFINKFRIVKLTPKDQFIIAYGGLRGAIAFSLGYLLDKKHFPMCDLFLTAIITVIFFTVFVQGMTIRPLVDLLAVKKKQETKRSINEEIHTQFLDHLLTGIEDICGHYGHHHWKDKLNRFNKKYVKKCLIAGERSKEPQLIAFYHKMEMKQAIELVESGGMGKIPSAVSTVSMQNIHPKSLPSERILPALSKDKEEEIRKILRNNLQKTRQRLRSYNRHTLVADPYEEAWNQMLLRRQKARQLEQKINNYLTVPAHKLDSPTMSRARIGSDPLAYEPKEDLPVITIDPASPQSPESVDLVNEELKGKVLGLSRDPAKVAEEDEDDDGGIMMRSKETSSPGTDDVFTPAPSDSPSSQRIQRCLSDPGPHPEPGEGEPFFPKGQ
UniProt P15311: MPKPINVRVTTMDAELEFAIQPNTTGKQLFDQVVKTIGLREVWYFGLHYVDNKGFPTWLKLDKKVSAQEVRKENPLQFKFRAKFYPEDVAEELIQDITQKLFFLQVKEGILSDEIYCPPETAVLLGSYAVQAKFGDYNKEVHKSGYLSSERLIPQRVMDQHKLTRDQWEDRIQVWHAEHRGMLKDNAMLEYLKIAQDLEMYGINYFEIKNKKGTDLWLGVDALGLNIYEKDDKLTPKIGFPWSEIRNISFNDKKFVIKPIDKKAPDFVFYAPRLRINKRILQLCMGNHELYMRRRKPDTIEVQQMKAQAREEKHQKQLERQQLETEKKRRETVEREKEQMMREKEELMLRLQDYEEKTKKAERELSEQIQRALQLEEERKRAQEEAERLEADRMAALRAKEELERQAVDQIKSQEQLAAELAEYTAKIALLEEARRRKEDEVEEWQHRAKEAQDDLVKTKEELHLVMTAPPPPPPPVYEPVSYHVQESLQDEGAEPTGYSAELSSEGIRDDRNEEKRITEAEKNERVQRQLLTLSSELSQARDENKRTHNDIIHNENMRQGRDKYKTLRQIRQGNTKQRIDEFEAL
UniProt Q13418: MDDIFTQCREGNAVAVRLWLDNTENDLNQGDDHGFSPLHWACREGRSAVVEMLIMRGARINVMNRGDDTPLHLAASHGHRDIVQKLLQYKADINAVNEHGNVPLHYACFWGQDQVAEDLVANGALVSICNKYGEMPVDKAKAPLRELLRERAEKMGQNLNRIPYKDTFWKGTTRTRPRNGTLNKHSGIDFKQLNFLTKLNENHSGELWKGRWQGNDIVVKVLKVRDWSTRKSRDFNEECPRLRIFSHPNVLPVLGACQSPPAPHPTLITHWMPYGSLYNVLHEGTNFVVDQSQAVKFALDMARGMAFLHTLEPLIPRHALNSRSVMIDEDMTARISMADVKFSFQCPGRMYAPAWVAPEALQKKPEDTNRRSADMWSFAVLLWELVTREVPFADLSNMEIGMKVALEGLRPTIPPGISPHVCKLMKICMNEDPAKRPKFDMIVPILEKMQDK

For assay [1], the target named is Na+/H+ exchanger type 1 (human (endogenous in MDA-MB-231 and PC-3)) (UniProt P19634). Briefly: proximity ligation; in situ PLA (Duolink II Kit) of endogenous proteins in fixed MDA-MB-231 and PC-3 cells cultured 6 h on DQ Green-BSA Matrigel; detects interactions within 40 nm; read by epifluorescence and confocal microscopy.
Assay [2] has as its target ezrin phosphorylated at T567 (human (endogenous in MDA-MB-231 and PC-3)) (UniProt P15311). The description is as above.

No constants are given. Whether binding was seen depends on the method and setting. In cells and extracts the contact can be indirect. Some results given as binding are weak or reduced against the parent protein; the word gives no strength.

In the case of “integrin-linked kinase (from UniProt Q13418 1-452)”, the binding entry in assay [1] and in assay [2] was “binds” each time.
